Measured values from PubChem BioAssay AID590 (National Center for Advancing Translational Sciences (NCATS), 2007).
Among all 59,000 compounds or so, about 6,500 (11%) were called active. Inconclusive means that the source gave no clear call. Such entries were picked first, then a sample of the others. No stated cut-off is given here; in the data, active means max dye-equivalent concentration above about 10 nM; inconclusive means mostly about 1.1 nM to 9.6 nM; inactive means weaker than that.

assay: qHTS Assay for Spectroscopic Profiling in A350 Spectral Region; settings: Compound autofluorescence, 340/450 nm, Alexa 350 dye-equivalents; stronger effect = higher value

SMILES	max dye-equivalent concentration
COc1cccc(-c2ccc3ncnc(NCc4cccnc4)c3c2)c1	inactive
CNc1oc(-c2ccco2)nc1C#N	inconclusive: 2.9 nM
Cc1nn(Cc2ccccc2Cl)c(C)c1N	inactive
Oc1ccc(/C=C/c2cc(O)cc(O)c2)cc1	inconclusive: 8.9 nM
Cc1cc(C)nc(SC2CCCCC2O)n1 (configuration not stated)	inconclusive: 6 nM
Cc1cc(=O)n2nc(N3CCC(C(=O)N4CCN(C)CC4)CC3)sc2n1	inconclusive: 2.5 nM
Cc1cccc(NC(=O)c2cc(-c3ccco3)nc3ccccc23)n1	active: 220 nM
O=c1c2ccccc2c(/C=N/n2cnnc2)c(O)n1-c1ccccc1	active: 78 nM
Nc1ncnc2nc(N3CCN(CCO)CC3)[nH]c12	inactive
CCc1nc(C)c(-c2ccccc2)c(=O)[nH]1	inactive
Cc1ccc(S(=O)(=O)N2CCCC2C(=O)Nc2cc(C)on2)cc1 (configuration not stated)	inconclusive: 3.1 nM
CCCCNC(=O)c1ccccc1NC(=O)c1ccccc1N(C)S(C)(=O)=O	inactive
COc1ccc(CC(=O)N2CCNC2=O)cc1	active: 100 nM
CCC(C)[C@H](NC(=O)Nc1ccc(C(C)=O)cc1)C(=O)OC (some centres not stated)	inconclusive: 1.4 nM
C/C=C(\C)c1nnc(NC(=O)C(C)C)s1	inconclusive: 6.8 nM
COCCOC(=O)C1=C(C)N=C2SCCC(=O)N2C1c1cccc(Br)c1 (configuration not stated)	inconclusive: 4.3 nM
COc1ccc(NC(=O)/C=C\c2ccc(Cl)cc2)cc1	inactive
COCCCn1c(-c2ccsc2)nc2c1c(=O)[nH]c(=O)n2Cc1ccccc1	active: 12 nM
O=C(O)CC(C(=O)OCCOc1ccccc1)N1CCOCC1 (configuration not stated)	inconclusive: 4.2 nM
Cc1ccc(C2C(C#N)=C(N)SC(N)=C2C#N)cc1	inconclusive: 4.2 nM
O=C(NC1(C(F)(F)F)NC(=O)N(Cc2ccco2)C1=O)c1cccs1 (configuration not stated)	inconclusive: 3.9 nM
CC(C)C(c1nnnn1C(C)(C)C)N1CCN(c2cccc(Cl)c2)CC1 (configuration not stated)	inactive
COc1ccc(-c2cc(C(F)F)n3ncc(C(=O)N4CCSCC4)c3n2)cc1	active: 150 nM
Cc1ccc(C)c2[nH]c(=O)c(C(c3nnnn3CCc3ccccc3)N3CCOCC3)cc12 (configuration not stated)	active: 44 nM

SMILES	max dye-equivalent concentration
Cc1cccc(Nc2ncc3c(n2)CC(C)CC3=O)c1 (configuration not stated)	inconclusive: 1.9 nM
Cc1c(C(=O)NC(C)C)oc2c1-c1[nH]ncc1CC2	inconclusive: 9.8 nM
O=C1C2C3C=CC(C3)C2C(=O)N1c1n[nH]c(-c2cccnc2)n1 (configuration not stated)	inconclusive: 1.4 nM
CCCCc1nc2ccccc2c(=O)n1NC(=O)c1c(O)c2cccc3c2n(c1=O)CCC3	inconclusive: 2.1 nM
CCCc1c(-c2ccc(O)cc2)nn(-c2ccc(O)cc2)c1-c1ccc(O)cc1	inactive
CCOc1ccc2[nH]c(=O)c(C(c3nnnn3C3CCCCC3)N3CCN(CC)CC3)cc2c1 (configuration not stated)	active: 440 nM
COc1ccc(OC)c(NC(=O)CNC(=O)Cn2cnc3ccccc3c2=O)c1	inconclusive: 3.3 nM
CCc1nc2c(sc3nc(N4CCOCC4)c4c(c32)CC(C)(C)OC4)c(=O)o1	inconclusive: 1.6 nM
COc1ccc(N2CCN(C(=O)CCn3nnc4ccccc43)CC2)cc1	inactive
CC(=O)NC(CC(=O)NCC(c1ccco1)N(C)C)c1ccccc1 (configuration not stated)	inconclusive: 1.1 nM
CCC(=O)N1CCc2cc(OC)c(OC)cc2C1COc1ccc(C(=O)OC)cc1 (configuration not stated)	inactive
Cc1csc(SCC(=O)Nc2cc(C(C)(C)C)nn2-c2ccccc2)n1	inconclusive: 1.2 nM
O=C(NCC(=O)N(c1cccnc1)C(C(=O)NC1CCCCC1)c1cccnc1)c1ccco1 (configuration not stated)	inconclusive: 3.7 nM
CCOC(=O)c1cc2ccc(OC(=O)c3ccco3)cc2oc1=O	active: 2200 nM
CCOCc1cc(C2NC(=O)NC(C)=C2C(=O)OCC)ccc1OC (configuration not stated)	active: 36 nM
Cc1c(CNC(=O)c2nn3c(c2Cl)NC(c2ccccc2)CC3C(F)(F)F)cnn1C (configuration not stated)	inactive
Cn1c(=O)n(Cc2ccccc2F)c2ccccc21	inconclusive: 6 nM
Cc1cc(C)c2c(n1)nn1c(N3CCN(c4cccc(Cl)c4)CC3)cc(C)nc21	active: 110 nM
O=C(COc1ccccc1)N(Cc1cc2ccccc2[nH]c1=O)CC1CCCO1 (configuration not stated)	inactive
CN(C)C(=O)c1ccc(-c2cc(Nc3ccccc3)ncn2)cc1	inactive
COc1ccc(-n2c(=O)c(-c3cc(F)cc(F)c3)nc3cncnc32)cc1	inactive
Cc1noc(C)c1-c1ccc2ncnc(NCc3ccccc3)c2c1	inactive
Cc1ccc2nc(-c3ccc(NC(=O)c4ccco4)cc3)[nH]c2c1	inconclusive: 6.3 nM

Among those listed so far, 2 have a CF3 group:
SMILES	max dye-equivalent concentration
O=C(NC1(C(F)(F)F)NC(=O)N(Cc2ccco2)C1=O)c1cccs1 (configuration not stated)	inconclusive: 3.9 nM
Cc1c(CNC(=O)c2nn3c(c2Cl)NC(c2ccccc2)CC3C(F)(F)F)cnn1C (configuration not stated)	inactive
